{"source": "PubChem BioAssay AID743454 (Peter MacCallum Cancer Centre, 2014)", "purpose": "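Knock-downs lowering viability or raising caspase 3/7 activity in vorinostat-treated resistant cells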 (primary screen)", "cell system": "human HCT116-VR colon cancer cells, selected for vorinostat resistance", "reagent": "siRNA pool against human genes, 40 nM siRNA pool", "time to read-out": "vorinostat for 24 h, read-out about 72 h after transfection", "conditions": "vorinostat at 2.5 µM final", "detection": "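Cell viability by CellTiter-Fluor and caspase 3/7 activity by luminescence, each scaled to mock wells per plate, duplicates averaged, then robust z-scored over all plates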", "direction": "viability robust z-score: higher = more viable cells than screen typical; caspase robust z-score: higher = more caspase 3/7 activity than screen typical", "call rule": "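Hits are knock-downs in viability class RV1/RV2 or caspase class CA1/CA2, excluding ones that killed cells in the no-drug cell-count arm; hits then retested with single siRNAs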", "note": "This is an unselected part of about 18,000 reagents tested. 450 of all reagents (2.5%) were called active. 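Single biological run; no consistent viability z cut-off exists, so the class columns, not z-scores, define the calls.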 Entries without a mark were called inactive. No sequences are given here."}
{"target gene": "INSM1", "viability hit class": "no change", "caspase hit class": "no change", "viability robust z-score": 0.62, "caspase robust z-score": -0.34}
{"target gene": "TAF6L", "viability hit class": "no change", "caspase hit class": "no change", "viability robust z-score": 1.41, "caspase robust z-score": 0}
{"target gene": "EPHB3", "viability hit class": "no change", "caspase hit class": "no change", "viability robust z-score": 0.44, "caspase robust z-score": 2.98}
{"target gene": "XPO7", "viability hit class": "no change", "caspase hit class": "no change", "viability robust z-score": 0.7, "caspase robust z-score": 0.37}
{"target gene": "ATP8A1", "viability hit class": "no change", "caspase hit class": "no change", "viability robust z-score": -0.99, "caspase robust z-score": -0.46}
{"target gene": "PIGV", "viability hit class": "no change", "caspase hit class": "no change", "viability robust z-score": -0.85, "caspase robust z-score": 1.66}
{"target gene": "TTC39B", "viability hit class": "no change", "caspase hit class": "no change", "viability robust z-score": 0.62, "caspase robust z-score": 1.52}

A stretch from the list above:
{"target gene": "TAF6L", "viability hit class": "no change", "caspase hit class": "no change", "viability robust z-score": 1.41, "caspase robust z-score": 0}
{"target gene": "EPHB3", "viability hit class": "no change", "caspase hit class": "no change", "viability robust z-score": 0.44, "caspase robust z-score": 2.98}

Continued.
{"target gene": "CAPRIN2", "viability hit class": "no change", "caspase hit class": "no change", "viability robust z-score": -1, "caspase robust z-score": -0.2}
{"target gene": "ATRN", "viability hit class": "no change", "caspase hit class": "no change", "viability robust z-score": -0.08, "caspase robust z-score": -0.32}
{"target gene": "AOPEP", "viability hit class": "no change", "caspase hit class": "no change", "viability robust z-score": 1.12, "caspase robust z-score": -0.54}
{"target gene": "PDP1", "viability hit class": "no change", "caspase hit class": "no change", "viability robust z-score": -0.51, "caspase robust z-score": 1.16}
{"target gene": "SIGLEC10", "viability hit class": "no change", "caspase hit class": "no change", "viability robust z-score": 0.48, "caspase robust z-score": 2.11}
